Reference: the supplement of paper PMC12823440, “Inhibitors supercharge kinase turnover through native proteolytic circuits” (Nature, 2025)
Where a name gives a salt, the structure may show the parent alone. The list shows a part of the results. Hit calls seldom repeat between salt and free forms of one compound.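 Kinases were expressed as nanoluciferase fusions in K562 cells and luminescence was read every 4 h between 2 and 18 h as percent of control, DMSO set to 100% and a positive control to 0%. A time point counts as decreased when the signal drops significantly (2 sigma). The hit call is the authors' own, does not follow from the count of time points alone, and its rule is not shown.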

The chains behind the UniProt entries cited, without tags or fusion partners. Where a name states a change or a piece, a line headed by the entry shows the natural chain unless it says otherwise.
UniProt P50613: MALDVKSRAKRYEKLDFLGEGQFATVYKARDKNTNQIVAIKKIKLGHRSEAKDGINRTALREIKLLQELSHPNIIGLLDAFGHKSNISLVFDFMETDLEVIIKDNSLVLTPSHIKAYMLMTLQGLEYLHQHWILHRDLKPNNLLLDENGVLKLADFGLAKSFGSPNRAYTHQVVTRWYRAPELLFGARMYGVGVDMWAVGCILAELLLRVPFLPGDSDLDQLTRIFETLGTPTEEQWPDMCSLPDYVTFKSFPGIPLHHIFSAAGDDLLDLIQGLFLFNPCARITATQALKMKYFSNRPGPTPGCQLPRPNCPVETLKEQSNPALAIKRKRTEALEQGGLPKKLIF
UniProt P50750, whole entry: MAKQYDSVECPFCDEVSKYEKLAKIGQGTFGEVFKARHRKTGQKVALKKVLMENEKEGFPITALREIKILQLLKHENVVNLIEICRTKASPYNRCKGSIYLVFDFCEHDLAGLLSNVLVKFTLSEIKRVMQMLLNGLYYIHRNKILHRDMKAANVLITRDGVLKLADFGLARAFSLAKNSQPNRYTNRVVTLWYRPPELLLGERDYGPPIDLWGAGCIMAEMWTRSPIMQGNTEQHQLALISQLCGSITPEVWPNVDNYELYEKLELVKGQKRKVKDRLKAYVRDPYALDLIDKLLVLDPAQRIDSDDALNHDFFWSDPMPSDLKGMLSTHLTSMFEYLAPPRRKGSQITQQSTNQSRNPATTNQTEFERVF
UniProt O96017, whole entry: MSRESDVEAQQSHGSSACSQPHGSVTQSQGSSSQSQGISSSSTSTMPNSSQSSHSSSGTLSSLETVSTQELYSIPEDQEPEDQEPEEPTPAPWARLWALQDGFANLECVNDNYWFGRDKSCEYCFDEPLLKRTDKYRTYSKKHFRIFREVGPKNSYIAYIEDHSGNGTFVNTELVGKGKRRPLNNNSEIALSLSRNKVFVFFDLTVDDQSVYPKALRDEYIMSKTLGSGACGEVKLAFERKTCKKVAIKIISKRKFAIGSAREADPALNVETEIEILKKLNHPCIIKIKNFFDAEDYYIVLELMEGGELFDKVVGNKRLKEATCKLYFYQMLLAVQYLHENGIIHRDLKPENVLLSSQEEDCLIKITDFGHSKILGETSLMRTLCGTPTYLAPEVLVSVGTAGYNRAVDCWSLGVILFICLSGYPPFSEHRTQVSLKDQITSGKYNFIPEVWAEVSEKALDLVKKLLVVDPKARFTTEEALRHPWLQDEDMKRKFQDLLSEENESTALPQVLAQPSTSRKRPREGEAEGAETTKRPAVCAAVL
UniProt P07333, whole entry: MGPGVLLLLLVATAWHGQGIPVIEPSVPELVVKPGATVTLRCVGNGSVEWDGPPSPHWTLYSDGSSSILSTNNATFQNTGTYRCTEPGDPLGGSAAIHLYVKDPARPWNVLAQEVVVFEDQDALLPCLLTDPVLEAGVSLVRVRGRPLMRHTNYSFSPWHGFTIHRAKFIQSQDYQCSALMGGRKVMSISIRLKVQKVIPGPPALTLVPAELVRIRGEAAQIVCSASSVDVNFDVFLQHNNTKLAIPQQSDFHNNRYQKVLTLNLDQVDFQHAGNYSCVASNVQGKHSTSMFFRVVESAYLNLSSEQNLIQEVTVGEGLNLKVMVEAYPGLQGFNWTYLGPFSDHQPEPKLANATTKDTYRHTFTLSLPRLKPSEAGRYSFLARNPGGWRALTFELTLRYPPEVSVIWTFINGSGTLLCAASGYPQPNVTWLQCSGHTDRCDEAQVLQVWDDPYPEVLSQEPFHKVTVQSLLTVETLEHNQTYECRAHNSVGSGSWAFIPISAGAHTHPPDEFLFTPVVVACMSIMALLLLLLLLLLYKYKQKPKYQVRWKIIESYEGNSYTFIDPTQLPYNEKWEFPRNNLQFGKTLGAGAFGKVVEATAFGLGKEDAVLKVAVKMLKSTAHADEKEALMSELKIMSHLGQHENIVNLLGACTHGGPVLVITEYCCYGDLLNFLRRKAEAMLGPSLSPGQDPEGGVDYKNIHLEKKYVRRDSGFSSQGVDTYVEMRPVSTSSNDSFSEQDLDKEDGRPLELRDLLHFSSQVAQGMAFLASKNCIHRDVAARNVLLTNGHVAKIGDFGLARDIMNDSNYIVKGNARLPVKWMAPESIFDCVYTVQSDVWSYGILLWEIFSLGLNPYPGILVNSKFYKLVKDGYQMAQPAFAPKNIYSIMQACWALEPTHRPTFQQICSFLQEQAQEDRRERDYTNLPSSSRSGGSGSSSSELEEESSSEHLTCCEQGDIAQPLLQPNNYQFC
UniProt P41240: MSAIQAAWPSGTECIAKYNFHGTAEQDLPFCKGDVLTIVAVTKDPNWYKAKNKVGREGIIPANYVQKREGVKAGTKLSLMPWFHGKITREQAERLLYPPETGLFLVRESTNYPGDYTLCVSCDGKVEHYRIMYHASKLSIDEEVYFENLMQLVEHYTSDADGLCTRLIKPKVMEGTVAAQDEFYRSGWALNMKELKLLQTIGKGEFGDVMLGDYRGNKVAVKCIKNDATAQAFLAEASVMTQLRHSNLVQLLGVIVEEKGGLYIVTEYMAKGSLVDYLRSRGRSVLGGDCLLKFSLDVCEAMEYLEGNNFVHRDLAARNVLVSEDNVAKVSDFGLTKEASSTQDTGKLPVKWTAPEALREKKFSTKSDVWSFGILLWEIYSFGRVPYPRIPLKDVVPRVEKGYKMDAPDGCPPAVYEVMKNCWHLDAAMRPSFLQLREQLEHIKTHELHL
UniProt P48729: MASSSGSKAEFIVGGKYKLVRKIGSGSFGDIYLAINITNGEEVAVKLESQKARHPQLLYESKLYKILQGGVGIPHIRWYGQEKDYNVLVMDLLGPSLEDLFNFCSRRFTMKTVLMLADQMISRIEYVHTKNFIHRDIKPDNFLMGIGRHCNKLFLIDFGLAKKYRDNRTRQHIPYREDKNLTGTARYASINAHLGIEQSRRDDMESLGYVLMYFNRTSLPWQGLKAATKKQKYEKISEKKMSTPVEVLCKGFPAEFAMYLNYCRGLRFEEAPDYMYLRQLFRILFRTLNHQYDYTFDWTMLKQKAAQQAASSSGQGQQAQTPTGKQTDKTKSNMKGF
UniProt P48730: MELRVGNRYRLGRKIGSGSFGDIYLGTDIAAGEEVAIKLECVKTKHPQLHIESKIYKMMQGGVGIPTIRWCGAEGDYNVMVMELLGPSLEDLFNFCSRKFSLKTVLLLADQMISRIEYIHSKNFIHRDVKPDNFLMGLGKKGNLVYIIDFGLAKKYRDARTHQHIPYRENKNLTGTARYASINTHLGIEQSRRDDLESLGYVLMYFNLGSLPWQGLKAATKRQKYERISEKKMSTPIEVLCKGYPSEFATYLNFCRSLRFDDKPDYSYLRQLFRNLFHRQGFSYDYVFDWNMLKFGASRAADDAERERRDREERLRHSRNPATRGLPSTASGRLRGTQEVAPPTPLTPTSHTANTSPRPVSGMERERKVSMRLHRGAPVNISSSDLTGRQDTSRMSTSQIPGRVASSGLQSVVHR
UniProt Q08345: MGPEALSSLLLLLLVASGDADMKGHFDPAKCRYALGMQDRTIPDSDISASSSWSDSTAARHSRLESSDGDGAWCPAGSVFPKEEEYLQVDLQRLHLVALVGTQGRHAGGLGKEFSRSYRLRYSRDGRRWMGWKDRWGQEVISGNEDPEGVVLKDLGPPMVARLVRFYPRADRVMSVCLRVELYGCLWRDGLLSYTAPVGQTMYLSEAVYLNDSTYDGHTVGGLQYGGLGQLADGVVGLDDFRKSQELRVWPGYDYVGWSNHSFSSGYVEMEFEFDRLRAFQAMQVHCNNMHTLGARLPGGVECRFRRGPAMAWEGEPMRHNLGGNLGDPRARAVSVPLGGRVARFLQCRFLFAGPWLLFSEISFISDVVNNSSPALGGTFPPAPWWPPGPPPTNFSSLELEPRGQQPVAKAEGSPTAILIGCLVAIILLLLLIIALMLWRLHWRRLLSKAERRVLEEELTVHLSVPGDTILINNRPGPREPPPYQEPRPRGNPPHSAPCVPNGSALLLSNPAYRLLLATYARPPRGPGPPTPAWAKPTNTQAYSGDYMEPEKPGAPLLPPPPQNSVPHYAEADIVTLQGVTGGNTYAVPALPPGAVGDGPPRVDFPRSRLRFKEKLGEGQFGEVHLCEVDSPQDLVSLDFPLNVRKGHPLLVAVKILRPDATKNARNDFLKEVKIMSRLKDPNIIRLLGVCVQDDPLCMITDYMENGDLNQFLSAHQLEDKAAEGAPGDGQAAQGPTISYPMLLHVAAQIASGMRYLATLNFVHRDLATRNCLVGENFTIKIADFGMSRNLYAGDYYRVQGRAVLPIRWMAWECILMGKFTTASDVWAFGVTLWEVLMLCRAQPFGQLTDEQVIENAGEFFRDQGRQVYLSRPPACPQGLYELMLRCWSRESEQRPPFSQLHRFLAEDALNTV
UniProt Q9Y463, whole entry, looked up: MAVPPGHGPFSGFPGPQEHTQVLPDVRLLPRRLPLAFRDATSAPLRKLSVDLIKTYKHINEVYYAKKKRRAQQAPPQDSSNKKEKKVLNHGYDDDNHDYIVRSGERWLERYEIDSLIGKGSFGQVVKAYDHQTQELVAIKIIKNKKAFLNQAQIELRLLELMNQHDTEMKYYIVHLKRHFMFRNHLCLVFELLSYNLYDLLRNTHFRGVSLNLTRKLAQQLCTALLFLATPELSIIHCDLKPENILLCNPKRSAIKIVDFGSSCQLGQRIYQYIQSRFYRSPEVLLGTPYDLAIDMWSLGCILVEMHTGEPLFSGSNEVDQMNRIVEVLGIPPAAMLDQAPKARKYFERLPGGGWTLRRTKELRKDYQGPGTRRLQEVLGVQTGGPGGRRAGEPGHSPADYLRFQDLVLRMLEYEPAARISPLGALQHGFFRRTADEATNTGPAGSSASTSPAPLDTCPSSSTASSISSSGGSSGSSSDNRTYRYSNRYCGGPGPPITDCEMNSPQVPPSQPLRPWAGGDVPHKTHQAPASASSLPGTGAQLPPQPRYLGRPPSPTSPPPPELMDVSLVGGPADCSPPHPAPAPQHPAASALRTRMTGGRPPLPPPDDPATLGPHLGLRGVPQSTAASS
UniProt Q92630: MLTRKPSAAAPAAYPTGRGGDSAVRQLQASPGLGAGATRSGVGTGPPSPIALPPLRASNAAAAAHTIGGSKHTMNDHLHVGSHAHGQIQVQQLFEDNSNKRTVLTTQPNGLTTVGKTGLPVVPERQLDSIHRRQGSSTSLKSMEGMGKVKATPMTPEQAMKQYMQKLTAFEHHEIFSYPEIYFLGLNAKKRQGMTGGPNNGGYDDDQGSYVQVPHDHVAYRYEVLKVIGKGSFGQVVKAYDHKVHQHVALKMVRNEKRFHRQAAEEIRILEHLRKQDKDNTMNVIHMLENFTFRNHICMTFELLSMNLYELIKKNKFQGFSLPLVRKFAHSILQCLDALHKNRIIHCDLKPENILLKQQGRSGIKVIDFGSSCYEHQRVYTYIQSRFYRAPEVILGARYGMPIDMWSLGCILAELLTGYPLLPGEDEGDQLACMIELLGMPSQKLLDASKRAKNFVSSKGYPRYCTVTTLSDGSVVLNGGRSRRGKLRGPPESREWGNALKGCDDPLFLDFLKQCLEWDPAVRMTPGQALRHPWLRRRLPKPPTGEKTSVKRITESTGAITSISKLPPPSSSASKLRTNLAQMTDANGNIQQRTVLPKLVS

Legend:
Assay in all cases: kinase-Nluc reporter destabilization hit call (1 = scored as downregulated) (binary); higher = compound decreases kinase abundance
Conditions in all cases: K562; 2-18 h
CDK7 = CDK7 (UniProt P50613)
CDK9 = CDK9 (UniProt P50750)
CHEK2 = CHEK2 (UniProt O96017)
CSF1R = CSF1R (UniProt P07333)
CSK = CSK (UniProt P41240)
CSNK1A1 = CSNK1A1 (UniProt P48729)
CSNK1D = CSNK1D (UniProt P48730)
DDR1 = DDR1 (UniProt Q08345)
DYRK1B = DYRK1B (UniProt Q9Y463)
DYRK2 = DYRK2 (UniProt Q92630)

Row | Compound | kinase-Nluc reporter destabilization hit call (CDK7) | kinase-Nluc reporter destabilization hit call (CDK9) | kinase-Nluc reporter destabilization hit call (CHEK2) | kinase-Nluc reporter destabilization hit call (CSF1R) | kinase-Nluc reporter destabilization hit call (CSK) | kinase-Nluc reporter destabilization hit call (CSNK1A1) | kinase-Nluc reporter destabilization hit call (CSNK1D) | kinase-Nluc reporter destabilization hit call (DDR1) | kinase-Nluc reporter destabilization hit call (DYRK1B) | kinase-Nluc reporter destabilization hit call (DYRK2)
1 | O=[N+]([O-])c1ccc(-c2nc(-c3ccc(F)cc3)c(-c3ccncc3)[nH]2)cc1 (10 µM) | inactive: 0 | inactive: 0 | inactive: 0 | inactive: 0 | inactive: 0 | active: 1 | inactive: 0 | inactive: 0 | inactive: 0 | inactive: 0
2 | COc1cc(N2CCC(N3CCN(C)CC3)CC2)ccc1Nc1ncnc(Nc2ccccc2S(=O)(=O)C(C)C)n1 (10 µM) | inactive: 0 | inactive: 0 | inactive: 0 | inactive: 0 | inactive: 0 | inactive: 0 | inactive: 0 | inactive: 0 | inactive: 0 | inactive: 0
3 | S=C(NCc1ccc2c(c1)OCO2)N1CCN(c2ncnc3c2oc2ccccc23)CC1 [Amuvatinib] (2.5 µM) | inactive: 0 | inactive: 0 | inactive: 0 | inactive: 0 | inactive: 0 | inactive: 0 | inactive: 0 | inactive: 0 | inactive: 0 | inactive: 0
4 | Cc1cnc(Nc2ccc(F)cc2Cl)nc1-c1c[nH]c(C(=O)N[C@H](CO)c2cccc(Cl)c2)c1 (10 µM) | inactive: 0 | inactive: 0 | inactive: 0 | inactive: 0 | inactive: 0 | inactive: 0 | inactive: 0 | inactive: 0 | inactive: 0 | inactive: 0
5 | COCCOc1cnc2ccn([C@H](C)c3nnc4c(F)cc(-c5cnn(C)c5)cn34)c(=O)c2c1 (10 µM) | inactive: 0 | inactive: 0 | inactive: 0 | inactive: 0 | inactive: 0 | inactive: 0 | inactive: 0 | inactive: 0 | inactive: 0 | inactive: 0
6 | Nc1ccc(O)c(C(=O)O)c1 [5-Aminosalicylic Acid] (10 µM) | inactive: 0 | inactive: 0 | inactive: 0 | inactive: 0 | inactive: 0 | inactive: 0 | inactive: 0 | inactive: 0 | inactive: 0 | inactive: 0
7 | O=C(O)/C=C(\CCc1ccc(Cl)cc1)c1ccccc1 (10 µM) | inactive: 0 | inactive: 0 | inactive: 0 | inactive: 0 | inactive: 0 | inactive: 0 | inactive: 0 | inactive: 0 | inactive: 0 | inactive: 0
8 | COC(=O)N1CCN(C2CCC(Nc3nc(Nc4cnn(C)c4)nc4ccc(CC#N)nc34)CC2)CC1 (stereo not given) (10 µM) | inactive: 0 | inactive: 0 | inactive: 0 | inactive: 0 | inactive: 0 | inactive: 0 | inactive: 0 | inactive: 0 | inactive: 0 | inactive: 0
9 | CCCCNc1ncc2c(-c3ccc(F)cc3)nn(CC3CCC(N)CC3)c2n1 (stereo not given) (2.5 µM) | inactive: 0 | inactive: 0 | inactive: 0 | inactive: 0 | inactive: 0 | inactive: 0 | inactive: 0 | inactive: 0 | inactive: 0 | inactive: 0
10 | CC(C)(Oc1ccc(Cl)cc1)C(=O)Nc1ccc(OCc2ccc(C#N)cc2)cc1 [AMPK activator 4] (10 µM) | inactive: 0 | inactive: 0 | inactive: 0 | inactive: 0 | inactive: 0 | inactive: 0 | inactive: 0 | inactive: 0 | inactive: 0 | inactive: 0
11 | CCNC(=O)Nc1ccc(-c2nc3c(c(N4CCOC[C@@H]4C)n2)CCN(C2COC2)C3)cc1 (2.5 µM) | inactive: 0 | inactive: 0 | inactive: 0 | inactive: 0 | inactive: 0 | inactive: 0 | inactive: 0 | active: 1 | inactive: 0 | inactive: 0
12 | N#CC(=C(/N)Sc1ccccc1N)/C(C#N)=C(\N)Sc1ccccc1N (10 µM) | inactive: 0 | inactive: 0 | inactive: 0 | inactive: 0 | inactive: 0 | inactive: 0 | inactive: 0 | inactive: 0 | inactive: 0 | inactive: 0
13 | COc1ccc(-c2cc(=O)c3c(O)cc(O)cc3o2)cc1-c1c(O)cc(O)c2c(=O)cc(-c3ccc(O)cc3)oc12 [Bilobetin] (2.5 µM) | inactive: 0 | inactive: 0 | inactive: 0 | inactive: 0 | inactive: 0 | inactive: 0 | inactive: 0 | inactive: 0 | inactive: 0 | inactive: 0
14 | CS(=O)(=O)c1cccc(CNc2nc(Nc3ccc4c(c3)CCC(=O)N4)ncc2C(F)(F)F)c1 (10 µM) | inactive: 0 | inactive: 0 | inactive: 0 | inactive: 0 | inactive: 0 | inactive: 0 | inactive: 0 | inactive: 0 | inactive: 0 | inactive: 0
15 | CO[C@@H]1[C@H](N(C)C(=O)c2ccccc2)C[C@H]2O[C@]1(C)n1c3ccccc3c3c4c(c5c6ccccc6n2c5c31)C(=O)NC4 [Midostaurin] (2.5 µM) | inactive: 0 | inactive: 0 | inactive: 0 | inactive: 0 | inactive: 0 | inactive: 0 | inactive: 0 | inactive: 0 | inactive: 0 | inactive: 0
16 | CC(ONC(=O)c1cc(C(F)(F)F)cc(C(F)(F)F)c1)C(=O)Nc1ccc(Cl)cc1 (stereo not given) (2.5 µM) | active: 1 | active: 1 | inactive: 0 | inactive: 0 | inactive: 0 | active: 1 | inactive: 0 | inactive: 0 | inactive: 0 | inactive: 0
17 | COc1cc2c(cc1OC)[C@@H]1C(=O)c3ccc4c(c3O[C@@H]1CO2)C=CC(C)(C)O4 [Deguelin] (10 µM) | inactive: 0 | inactive: 0 | inactive: 0 | inactive: 0 | inactive: 0 | inactive: 0 | inactive: 0 | inactive: 0 | inactive: 0 | inactive: 0
18 | CCCCC(=O)OCC(=O)[C@]1(O)Cc2c(O)c3c(c(O)c2[C@@H](O[C@H]2C[C@H](NC(=O)C(F)(F)F)[C@H](O)[C@H](C)O2)C1)C(=O)c1c(OC)cccc1C3=O [Valrubicin] (10 µM) | inactive: 0 | inactive: 0 | inactive: 0 | inactive: 0 | inactive: 0 | inactive: 0 | inactive: 0 | inactive: 0 | inactive: 0 | inactive: 0
19 | N=C(NC(=N)N1CCCC1)Nc1ccc(OC(F)(F)F)cc1 (10 µM) | inactive: 0 | inactive: 0 | inactive: 0 | inactive: 0 | inactive: 0 | inactive: 0 | inactive: 0 | inactive: 0 | inactive: 0 | inactive: 0
20 | COc1ccc2nc3ccc(OC)cc3c(SCCCN)c2c1 (10 µM) | inactive: 0 | inactive: 0 | inactive: 0 | inactive: 0 | inactive: 0 | inactive: 0 | inactive: 0 | inactive: 0 | inactive: 0 | inactive: 0
21 | Cc1cc2c(F)c(Oc3ncnn4cc(OC[C@@H](C)OC(=O)[C@H](C)N)c(C)c34)ccc2[nH]1 [Brivanib (alaninate)] (10 µM) | inactive: 0 | inactive: 0 | inactive: 0 | inactive: 0 | inactive: 0 | inactive: 0 | inactive: 0 | inactive: 0 | inactive: 0 | inactive: 0
22 | CC(C)=CCC[C@](C)(O[C@@H]1O[C@H](CO[C@@H]2O[C@H](CO)[C@@H](O)[C@H](O)[C@H]2O)[C@@H](O)[C@H](O)[C@H]1O)[C@H]1CC[C@]2(C)[C@@H]1[C@H](O)C[C@@H]1[C@@]3(C)CC[C@H](O[C@@H]4O[C@H](CO)[C@@H](O)[C@H](O)[C@H]4O[C@@H]4O[C@H](CO)[C@@H](O)[C@H](O)[C@H]4O)C(C)(C)[C@@H]3CC[C@]12C [Ginsenoside Rb1] (10 µM) | inactive: 0 | inactive: 0 | inactive: 0 | inactive: 0 | inactive: 0 | inactive: 0 | inactive: 0 | inactive: 0 | inactive: 0 | inactive: 0
23 | O=C(CCl)c1c[nH]c2ccccc12 (2.5 µM) | inactive: 0 | inactive: 0 | inactive: 0 | inactive: 0 | inactive: 0 | inactive: 0 | inactive: 0 | inactive: 0 | inactive: 0 | inactive: 0
24 | Cn1c(N2CCO[C@@H](c3ccc(F)cc3)C2)nc(-c2ccncn2)cc1=O (10 µM) | inactive: 0 | inactive: 0 | inactive: 0 | inactive: 0 | inactive: 0 | inactive: 0 | inactive: 0 | inactive: 0 | inactive: 0 | inactive: 0
25 | CCC[C@H](C)Oc1nc(N)c2[nH]c(=O)n(CCCCCN3CCCCC3)c2n1 (10 µM) | inactive: 0 | inactive: 0 | inactive: 0 | inactive: 0 | inactive: 0 | inactive: 0 | inactive: 0 | inactive: 0 | inactive: 0 | inactive: 0
26 | Cc1ccc2c(NS(=O)(=O)c3ccccc3Cl)cccc2c1Oc1ncccc1-c1ccnc(N[C@H]2CCCNC2)n1 (2.5 µM) | inactive: 0 | inactive: 0 | inactive: 0 | inactive: 0 | inactive: 0 | inactive: 0 | inactive: 0 | inactive: 0 | inactive: 0 | inactive: 0
27 | Cn1cc(C2=C(c3ccc(Cl)cc3Cl)C(=O)NC2=O)c2ccccc21 (10 µM) | inactive: 0 | inactive: 0 | inactive: 0 | inactive: 0 | inactive: 0 | inactive: 0 | inactive: 0 | inactive: 0 | inactive: 0 | inactive: 0
28 | O=C(NCc1ccn[nH]1)c1cc([C@@H]2CCNC[C@H]2COc2ccc3c(c2)OCO3)ccc1F [GRK2-IN-1 (hydrochloride)] (10 µM) | inactive: 0 | inactive: 0 | inactive: 0 | inactive: 0 | inactive: 0 | inactive: 0 | inactive: 0 | inactive: 0 | inactive: 0 | inactive: 0
29 | CN(C)c1ccc(/C=C2\C(=O)Nc3ccccc32)c2ccccc12 (10 µM) | inactive: 0 | inactive: 0 | inactive: 0 | inactive: 0 | inactive: 0 | inactive: 0 | inactive: 0 | inactive: 0 | inactive: 0 | inactive: 0

Laid out differently: results already given.
Row	Compound	kinase-Nluc reporter destabilization hit call (CDK7)	kinase-Nluc reporter destabilization hit call (CDK9)	kinase-Nluc reporter destabilization hit call (CHEK2)	kinase-Nluc reporter destabilization hit call (CSF1R)	kinase-Nluc reporter destabilization hit call (CSK)	kinase-Nluc reporter destabilization hit call (CSNK1A1)	kinase-Nluc reporter destabilization hit call (CSNK1D)	kinase-Nluc reporter destabilization hit call (DDR1)	kinase-Nluc reporter destabilization hit call (DYRK1B)	kinase-Nluc reporter destabilization hit call (DYRK2)
5	COCCOc1cnc2ccn([C@H](C)c3nnc4c(F)cc(-c5cnn(C)c5)cn34)c(=O)c2c1 (10 µM)	inactive: 0	inactive: 0	inactive: 0	inactive: 0	inactive: 0	inactive: 0	inactive: 0	inactive: 0	inactive: 0	inactive: 0
6	Nc1ccc(O)c(C(=O)O)c1 [5-Aminosalicylic Acid] (10 µM)	inactive: 0	inactive: 0	inactive: 0	inactive: 0	inactive: 0	inactive: 0	inactive: 0	inactive: 0	inactive: 0	inactive: 0
7	O=C(O)/C=C(\CCc1ccc(Cl)cc1)c1ccccc1 (10 µM)	inactive: 0	inactive: 0	inactive: 0	inactive: 0	inactive: 0	inactive: 0	inactive: 0	inactive: 0	inactive: 0	inactive: 0
8	COC(=O)N1CCN(C2CCC(Nc3nc(Nc4cnn(C)c4)nc4ccc(CC#N)nc34)CC2)CC1 (stereo not given) (10 µM)	inactive: 0	inactive: 0	inactive: 0	inactive: 0	inactive: 0	inactive: 0	inactive: 0	inactive: 0	inactive: 0	inactive: 0
9	CCCCNc1ncc2c(-c3ccc(F)cc3)nn(CC3CCC(N)CC3)c2n1 (stereo not given) (2.5 µM)	inactive: 0	inactive: 0	inactive: 0	inactive: 0	inactive: 0	inactive: 0	inactive: 0	inactive: 0	inactive: 0	inactive: 0
10	CC(C)(Oc1ccc(Cl)cc1)C(=O)Nc1ccc(OCc2ccc(C#N)cc2)cc1 [AMPK activator 4] (10 µM)	inactive: 0	inactive: 0	inactive: 0	inactive: 0	inactive: 0	inactive: 0	inactive: 0	inactive: 0	inactive: 0	inactive: 0
11	CCNC(=O)Nc1ccc(-c2nc3c(c(N4CCOC[C@@H]4C)n2)CCN(C2COC2)C3)cc1 (2.5 µM)	inactive: 0	inactive: 0	inactive: 0	inactive: 0	inactive: 0	inactive: 0	inactive: 0	active: 1	inactive: 0	inactive: 0
12	N#CC(=C(/N)Sc1ccccc1N)/C(C#N)=C(\N)Sc1ccccc1N (10 µM)	inactive: 0	inactive: 0	inactive: 0	inactive: 0	inactive: 0	inactive: 0	inactive: 0	inactive: 0	inactive: 0	inactive: 0
